The values that follow come from publication PMC6006850, “Assessment of new HDAC inhibitors for immunotherapy of malignant pleural mesothelioma” (Clinical Epigenetics, 2018).

By IC50 is commonly meant the concentration that inhibits the measured activity by half.

The test system of the experiment is CD8 T-cell clones. In words: Cell viability (CellTiter-Glo) of CD8 T-cell clones treated with HDACi, with or without decitabine. In kind it is cell-based. Conditions: Homo sapiens, 48 h HDACi, no decitabine pretreatment. (In general: In ATP-based viability assays light output follows the ATP content of the culture.)

On to `O=C(CCCCCCC(=O)Nc1ccccc1)NO` [SAHA, Suberoylanilide hydroxamic acid], for which the IC50 was 1290 ± 50 nM.
